Results deposited as PubChem BioAssay AID1259405 (NCATS, 2018)

Purpose: 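Silenced genes that increase secreted GFP made by CHO cells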 (primary screen)
System: Chinese hamster CHO-K1 ovary cells with stable secreted eGFP expression
Reagent: single siRNA against mouse genes, 0.8 pmol siRNA per well (2 µl of 400 nM stock)
Duration: 3 days
Measurement: 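Percent of the per-plate non-targeting control median for intracellular GFP per well by laser scanning cytometry and for cell viability by ATP luminescence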
Reading the numbers: GFP, % of control: higher = more GFP per well, higher productivity; viability (ATP), % of control: higher = more viable cells (more ATP)
Call rule: 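a knock-down is called active if GFP reaches 120% or more of non-targeting control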
Here is an unselected part of about 50,000 reagents. Of all reagents, about 4,000 (8%) are marked active. 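Mouse siRNA library applied to hamster cells; one well for each siRNA.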 Entries without a mark were called inactive. Reagents against one gene are numbered here.

GFP, % of control | viability (ATP), % of control | Target gene | reagent no.
59.9 | 80.2 | Sbp (GeneID 20234) | 1
55.2 | 77.2 | Sbp (GeneID 20234) | 2
59.4 | 67.8 | Sbp (GeneID 20234) | 3
143 (active) | 93.7 | Cyp3a25 (GeneID 56388) | 1
54.1 | 81.1 | Cyp3a25 (GeneID 56388) | 2
75.8 | 74 | Cyp3a25 (GeneID 56388) | 3
86.2 | 114 | Rragb (GeneID 245670) | 1
115 | 77.9 | Rragb (GeneID 245670) | 2
94.8 | 90.9 | Rragb (GeneID 245670) | 3
85.9 | 64.5 | Synj2 (GeneID 20975) | 1
46.9 | 41.9 | Synj2 (GeneID 20975) | 2
87.8 | 68.1 | Synj2 (GeneID 20975) | 3
69 | 39.4 | Sdk2 (GeneID 237979) | 1
44 | 48 | Sdk2 (GeneID 237979) | 2
48.2 | 108 | Sdk2 (GeneID 237979) | 3
96.8 | 90.6 | Edil3 (GeneID 13612) | 1
64.4 | 81.1 | Edil3 (GeneID 13612) | 2
39.4 | 50.3 | H2-DMb2 (GeneID 15000) | 1
76.1 | 83.3 | H2-DMb2 (GeneID 15000) | 2
13.2 | 36.1 | H2-DMb2 (GeneID 15000) | 3
55.2 | 99.3 | BC024139 (GeneID 271278) | 1
79.5 | 56.2 | BC024139 (GeneID 271278) | 2
212 (active) | 147 | BC024139 (GeneID 271278) | 3
83.8 | 72.6 | Nsun7 (GeneID 70918) | 1
49.8 | 69 | Nsun7 (GeneID 70918) | 2
87.8 | 94 | Nsun7 (GeneID 70918) | 3
97.4 | 65.8 | Ndst2 (GeneID 17423) | 1
106 | 154 | Ndst2 (GeneID 17423) | 2
110 | 120 | Ndst2 (GeneID 17423) | 3
95.9 | 71.5 | Reep6 (GeneID 70335) | 1
61.1 | 88.1 | Reep6 (GeneID 70335) | 2
89 | 85.1 | Reep6 (GeneID 70335) | 3
75.3 | 94.7 | Hnrnpdl (GeneID 50926) | 1
76.4 | 87.3 | Hnrnpdl (GeneID 50926) | 2
59.6 | 32.6 | Hnrnpdl (GeneID 50926) | 3
67.1 | 99.3 | Polm (GeneID 54125) | 1
60.5 | 79.7 | Polm (GeneID 54125) | 2
53.9 | 67.3 | Polm (GeneID 54125) | 3
85.2 | 85.1 | Cd7 (GeneID 12516) | 1
39.5 | 39 | Cd7 (GeneID 12516) | 2
94.8 | 66.1 | Tmem143 (GeneID 70209) | 1
127 (active) | 93.9 | Tmem143 (GeneID 70209) | 2
58.2 | 22.6 | Tmem143 (GeneID 70209) | 3
181 (active) | 55.2 | Or4a68 (GeneID 258804) | 1
98.7 | 65.4 | Or4a68 (GeneID 258804) | 2
42.1 | 102 | Or4a68 (GeneID 258804) | 3
95.2 | 99.5 | Mapre3 (GeneID 100732) | 1
83.9 | 70.6 | Mapre3 (GeneID 100732) | 2
68.5 | 72.6 | Mapre3 (GeneID 100732) | 3
55.8 | 66.2 | Slc13a5 (GeneID 237831) | 1
32.3 | 44.6 | Slc13a5 (GeneID 237831) | 2
81.8 | 79.3 | Slc13a5 (GeneID 237831) | 3
122 (active) | 78.4 | Or13a25 (GeneID 258963) | 1
99 | 99.3 | Or13a25 (GeneID 258963) | 2
168 (active) | 105 | Or13a25 (GeneID 258963) | 3
103 | 120 | Nherf2 (GeneID 65962) | 1
121 (active) | 89.6 | Nherf2 (GeneID 65962) | 2
72.9 | 43.7 | Pcp2 (GeneID 18545) | 1
68.9 | 53.2 | Pcp2 (GeneID 18545) | 2
90.1 | 86.2 | Pcp2 (GeneID 18545) | 3
92.2 | 81.4 | Btbd35f1 (GeneID 71847) | 1
53.7 | 68.5 | Btbd35f1 (GeneID 71847) | 2
77.2 | 98.8 | Btbd35f1 (GeneID 71847) | 3
66.6 | 74.9 | Itgam (GeneID 16409) | 1
66.4 | 79.1 | Itgam (GeneID 16409) | 2
166 (active) | 141 | Xrcc3 (GeneID 74335) | 1
75.9 | 104 | Xrcc3 (GeneID 74335) | 2
36.9 | 28.8 | Gip (GeneID 14607) | 1
23.9 | 45.4 | Gip (GeneID 14607) | 2
58.4 | 42.8 | Gip (GeneID 14607) | 3
42.8 | 61.7 | Pfdn6 (GeneID 14976) | 1
91.9 | 96.4 | Pfdn6 (GeneID 14976) | 2
78 | 77.2 | Pfdn6 (GeneID 14976) | 3
49.7 | 22.7 | Prag1 (GeneID 244418) | 1
77.1 | 71.3 | Prag1 (GeneID 244418) | 2
44.8 | 28.2 | Prag1 (GeneID 244418) | 3
31.5 | 48.8 | Zfp365 (GeneID 216049) | 1
73.8 | 72.6 | Zfp365 (GeneID 216049) | 2
109 | 110 | Zfp365 (GeneID 216049) | 3
35.4 | 44.9 | Hormad1 (GeneID 67981) | 1
63.9 | 52.9 | Hormad1 (GeneID 67981) | 2
72.6 | 111 | Hormad1 (GeneID 67981) | 3
89.7 | 82.4 | Eef1g (GeneID 67160) | 1
90.7 | 76.1 | Eef1g (GeneID 67160) | 2
69.8 | 114 | Emilin1 (GeneID 100952) | 1
78 | 104 | Emilin1 (GeneID 100952) | 2
64.4 | 86.4 | Ccnl1 (GeneID 56706) | 1
86.9 | 124 | Ccnl1 (GeneID 56706) | 2
123 (active) | 96.5 | Xpo1 (GeneID 103573) | 1
84.6 | 54.4 | Xpo1 (GeneID 103573) | 2
81.3 | 69.3 | Xpo1 (GeneID 103573) | 3
76.7 | 92.6 | Pcdh18 (GeneID 73173) | 1
48 | 47.6 | Pcdh18 (GeneID 73173) | 2
54.2 | 66.8 | Abra (GeneID 223513) | 1
78 | 98 | Abra (GeneID 223513) | 2
163 (active) | 147 | Abra (GeneID 223513) | 3
74.6 | 56.4 | Naa80 (GeneID 56441) | 1
98 | 96.8 | Naa80 (GeneID 56441) | 2
76.3 | 81.6 | Naa80 (GeneID 56441) | 3
90.8 | 104 | Nxph2 (GeneID 18232) | 1
19.6 | 21.5 | Nxph2 (GeneID 18232) | 2
133 (active) | 83.1 | Nxph2 (GeneID 18232) | 3
127 (active) | 73.4 | Prl8a9 (GeneID 67310) | 1
57.9 | 65.1 | Prl8a9 (GeneID 67310) | 2
35.6 | 40.2 | Prl8a9 (GeneID 67310) | 3
64 | 79.3 | Cby2 (GeneID 67926) | 1
94.8 | 32 | Cby2 (GeneID 67926) | 2
43.4 | 45.6 | Cby2 (GeneID 67926) | 3
